Test results as given in patent US20180207269A1.
Results are given in words; binding and its absence hold for the method and conditions named. Some entries that bind do so weakly or less than the wild type.

The chains behind the UniProt entries cited, without tags or fusion partners. Where a name states a change or a piece, a line headed by the entry shows the natural chain unless it says otherwise.
UniProt Q8NHJ6: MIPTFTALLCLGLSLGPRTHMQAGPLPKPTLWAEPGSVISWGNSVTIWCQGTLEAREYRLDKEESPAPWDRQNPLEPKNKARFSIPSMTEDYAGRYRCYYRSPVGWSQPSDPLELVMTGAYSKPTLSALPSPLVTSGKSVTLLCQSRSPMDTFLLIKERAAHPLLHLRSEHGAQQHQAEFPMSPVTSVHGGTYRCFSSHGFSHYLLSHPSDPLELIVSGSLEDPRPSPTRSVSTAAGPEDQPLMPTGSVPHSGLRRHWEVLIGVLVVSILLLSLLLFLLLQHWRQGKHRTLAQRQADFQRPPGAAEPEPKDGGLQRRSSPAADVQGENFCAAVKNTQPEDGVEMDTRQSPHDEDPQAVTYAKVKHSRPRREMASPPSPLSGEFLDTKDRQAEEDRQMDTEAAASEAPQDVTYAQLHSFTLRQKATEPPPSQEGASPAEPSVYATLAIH

Columns and labels:
human CD166Fc (human) = biological target: T1, human CD166Fc (human) (UniProt Q13740); assay: ELISA, ILT3Fc coated at 2-16 ug/mL, CD166Fc in solution, anti-CD166 detection
T1 sequence (looked up): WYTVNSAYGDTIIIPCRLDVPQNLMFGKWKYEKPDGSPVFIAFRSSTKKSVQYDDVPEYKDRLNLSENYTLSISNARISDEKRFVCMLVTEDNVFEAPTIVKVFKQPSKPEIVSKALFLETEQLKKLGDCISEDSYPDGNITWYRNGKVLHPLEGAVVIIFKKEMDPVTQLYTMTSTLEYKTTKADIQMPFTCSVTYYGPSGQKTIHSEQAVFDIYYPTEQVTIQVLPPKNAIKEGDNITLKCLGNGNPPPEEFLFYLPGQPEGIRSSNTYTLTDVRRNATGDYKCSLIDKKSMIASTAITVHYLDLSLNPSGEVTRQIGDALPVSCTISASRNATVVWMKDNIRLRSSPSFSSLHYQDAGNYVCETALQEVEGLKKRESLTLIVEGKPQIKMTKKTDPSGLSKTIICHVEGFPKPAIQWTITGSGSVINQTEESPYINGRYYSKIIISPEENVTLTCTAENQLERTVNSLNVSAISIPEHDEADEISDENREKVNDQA

[1] = biological target: T2, full length human CD166 protein (recombinant) (human) (UniProt Q13740); assay: ELISA, ILT3Fc coated at 2-16 ug/mL, full length CD166 in solution, anti-CD166 detection
T2 sequence (looked up): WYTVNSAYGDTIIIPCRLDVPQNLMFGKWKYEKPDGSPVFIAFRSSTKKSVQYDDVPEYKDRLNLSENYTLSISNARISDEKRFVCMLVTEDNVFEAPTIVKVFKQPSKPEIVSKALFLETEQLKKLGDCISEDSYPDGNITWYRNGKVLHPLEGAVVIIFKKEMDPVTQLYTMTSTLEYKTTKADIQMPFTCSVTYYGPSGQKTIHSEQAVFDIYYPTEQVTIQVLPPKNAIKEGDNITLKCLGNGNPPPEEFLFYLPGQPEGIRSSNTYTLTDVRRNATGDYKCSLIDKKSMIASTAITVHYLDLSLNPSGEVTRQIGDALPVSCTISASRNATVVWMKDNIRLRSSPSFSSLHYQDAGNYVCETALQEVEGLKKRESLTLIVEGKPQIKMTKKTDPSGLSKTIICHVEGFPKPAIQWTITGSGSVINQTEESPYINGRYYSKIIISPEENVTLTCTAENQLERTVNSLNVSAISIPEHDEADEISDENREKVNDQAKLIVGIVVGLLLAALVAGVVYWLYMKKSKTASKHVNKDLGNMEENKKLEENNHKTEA

binding (human CD166Fc (human)): binds
binding [1]: binds
Substance: ILT3Fc (water-soluble recombinant protein: extracellular domain of human ILT3 affixed to the Fc portion of an immunoglobulin) (from UniProt Q8NHJ6 22-259; P01857 104-330) (Fc fusion)
